Patent US20220081485A1
Positions count from the first letter of the chain named. Results are given in words; binding and its absence hold for the method and conditions named. Some binding calls cover weakened binding; strength is not graded here.

B1: L10C2-IgG4 (antibody, V domains shown)
VH: EVQLVESGGGLVQPGGSLRLSCAVSGFTFSSYAMSWVRQAPGKGLEWVSSITGGGGGIYYADSVKGRFTISRDNSKNTVYLQMNSLRAEDTAVYYCAKDRISITIRPRYFGLDFWGQGTTVTVSS
VL: DIVMTQSPLSLPVTAGAPASISCRSSQSLLYSNGYNYLDWYMQKPGQSPQLLIYLGSNRASGVPDRFSGSGSGTDFTLKISRVEAEDVGVYYCMQALETPYAFGQGTKVEIKR
B2: L10B2-IgG4 (antibody, V domains shown)
VH: B1 VH
VL: DIVMTQSPLSLPVTPGEPASISCRSSHNLLYSNGYNYLDWYLQKPGQSPQLLIYLGSNRAYGVPDRFSGSGSGTDFTLKISRVEAEDVGVYHCMQALQSPYTFGQGTKVDIKR
B3: L18D7-IgG4 (antibody, V domains shown)
VH: B1 VH
VL: DIVMTQSPLSLPVTPGEPASISCRSSQSLLYSIGYNYLDWYLQKSGQSPQLLIYLGSNRASGVPDRFSGSGSGTDFTLKISRVEAEDVGFYYCMQSFKAPYTFGQGTKLEIKR
B4: L28F8-IgG4 (antibody, V domains shown)
VH: B1 VH
VL: B3 VL with S28N, L29V, L30V, S32G, I33N, S57T, R59V, S61A, F97L, K98Q

The binders below were run against IL4R-mFc (human IL-4R extracellular domain fused to murine IgG2a Fc) (human (Homo sapiens)) (assay: blocking ELISA: antibody gradient with IL4-his at a fixed concentration on coated IL4R-mFc; bound IL4-his detected with HRP-mouse-anti-his IgG).

binding, binds:
B1
B2
B3
B4
